Assay [1] concerns the target T1, Opioid receptor (Rattus norvegicus, UniProt P33533+P34975+P33535). As to the kind of experiment: Inhibition of [3H]naloxone binding to rat brain membrane with 100 mM NaCl.
Assay [2] deals with T1, Opioid receptor. Briefly: Inhibition of [3H]-Naloxone binding to rat brain membrane without NaCl.

The chains behind the UniProt entries cited, without tags or fusion partners. Where a name states a change or a piece, a line headed by the entry shows the natural chain unless it says otherwise.
UniProt P33533: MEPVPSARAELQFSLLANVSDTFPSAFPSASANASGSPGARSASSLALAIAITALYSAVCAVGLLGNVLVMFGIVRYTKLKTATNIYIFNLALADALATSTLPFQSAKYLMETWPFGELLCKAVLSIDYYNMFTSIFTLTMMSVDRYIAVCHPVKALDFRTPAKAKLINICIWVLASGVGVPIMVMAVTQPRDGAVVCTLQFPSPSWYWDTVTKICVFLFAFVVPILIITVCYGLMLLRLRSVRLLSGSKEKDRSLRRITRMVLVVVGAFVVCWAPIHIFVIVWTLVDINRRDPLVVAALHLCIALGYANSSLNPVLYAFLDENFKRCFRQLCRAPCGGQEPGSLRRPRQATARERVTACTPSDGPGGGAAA
UniProt P34975: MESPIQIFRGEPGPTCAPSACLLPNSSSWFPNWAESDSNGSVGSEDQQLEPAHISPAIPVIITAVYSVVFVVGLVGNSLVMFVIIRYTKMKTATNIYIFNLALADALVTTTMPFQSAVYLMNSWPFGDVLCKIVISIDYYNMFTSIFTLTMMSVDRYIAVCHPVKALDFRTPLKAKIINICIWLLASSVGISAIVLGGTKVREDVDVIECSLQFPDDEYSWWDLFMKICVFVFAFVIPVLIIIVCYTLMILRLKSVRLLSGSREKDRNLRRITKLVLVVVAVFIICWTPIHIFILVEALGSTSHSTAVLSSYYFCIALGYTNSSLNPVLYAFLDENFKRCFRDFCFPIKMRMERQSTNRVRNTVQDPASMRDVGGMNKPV
UniProt P33535: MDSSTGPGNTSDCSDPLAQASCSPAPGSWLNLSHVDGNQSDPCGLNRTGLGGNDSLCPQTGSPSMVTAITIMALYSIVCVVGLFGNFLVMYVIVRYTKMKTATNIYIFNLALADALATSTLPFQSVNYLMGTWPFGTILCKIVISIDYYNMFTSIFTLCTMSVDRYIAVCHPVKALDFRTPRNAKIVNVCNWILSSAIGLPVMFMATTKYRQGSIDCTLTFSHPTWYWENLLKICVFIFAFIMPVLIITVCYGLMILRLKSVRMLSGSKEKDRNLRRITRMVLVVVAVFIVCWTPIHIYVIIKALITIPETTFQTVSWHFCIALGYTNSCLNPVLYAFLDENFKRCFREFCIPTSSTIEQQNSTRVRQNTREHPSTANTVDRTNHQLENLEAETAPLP

SMILES strings stand for the structures.

`CO[C@@]12CC[C@@]3(C[C@@H]1[C@](C)(O)C(C)(C)C)[C@H]1Cc4ccc(O)c5c4[C@@]3(CCN1CC1CC1)[C@H]2O5` [BUPRENORPHINE]: the values for the IC50 in assay [1] and in assay [2] were 0.44 nM and 0.41 nM, respectively.

These data come from ChEMBL document CHEMBL1122480, “Synthesis and pharmacological studies of 4,4-disubstituted piperidines: a new class of compounds with potent analgesic properties” (J Med Chem, 1983).
